The chains behind the UniProt entries cited, without tags or fusion partners. Where a name states a change or a piece, a line headed by the entry shows the natural chain unless it says otherwise.
UniProt P02919: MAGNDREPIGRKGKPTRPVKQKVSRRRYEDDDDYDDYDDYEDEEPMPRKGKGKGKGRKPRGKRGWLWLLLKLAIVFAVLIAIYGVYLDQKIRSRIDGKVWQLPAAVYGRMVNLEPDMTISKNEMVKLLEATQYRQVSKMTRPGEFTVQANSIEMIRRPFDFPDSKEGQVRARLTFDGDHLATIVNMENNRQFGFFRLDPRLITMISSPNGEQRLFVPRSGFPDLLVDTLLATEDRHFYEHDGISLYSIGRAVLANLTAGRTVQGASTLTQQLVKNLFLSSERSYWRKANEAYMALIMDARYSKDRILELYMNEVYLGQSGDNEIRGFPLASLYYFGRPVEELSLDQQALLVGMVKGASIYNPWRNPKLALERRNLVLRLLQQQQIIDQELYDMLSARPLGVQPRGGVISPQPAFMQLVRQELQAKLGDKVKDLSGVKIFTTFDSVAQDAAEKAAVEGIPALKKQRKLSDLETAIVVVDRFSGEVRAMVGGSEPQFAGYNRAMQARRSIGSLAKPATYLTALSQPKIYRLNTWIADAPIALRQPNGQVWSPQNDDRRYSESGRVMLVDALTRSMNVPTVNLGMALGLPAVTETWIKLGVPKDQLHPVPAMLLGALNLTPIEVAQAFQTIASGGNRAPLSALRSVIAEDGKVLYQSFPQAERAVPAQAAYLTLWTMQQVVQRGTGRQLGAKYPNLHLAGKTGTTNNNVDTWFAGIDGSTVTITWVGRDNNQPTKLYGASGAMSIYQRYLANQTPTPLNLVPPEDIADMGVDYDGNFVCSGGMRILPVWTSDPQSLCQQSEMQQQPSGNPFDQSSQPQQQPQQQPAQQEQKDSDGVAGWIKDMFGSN

In publication doi:10.1101/2022.09.06.506770:

Key:
Assay in all cases: pull-down
[1] = molecular target: T1, His-tagged DacA (pET28a plasmid, ER2566) (Escherichia coli) (UniProt P0AEB2)
T1 sequence: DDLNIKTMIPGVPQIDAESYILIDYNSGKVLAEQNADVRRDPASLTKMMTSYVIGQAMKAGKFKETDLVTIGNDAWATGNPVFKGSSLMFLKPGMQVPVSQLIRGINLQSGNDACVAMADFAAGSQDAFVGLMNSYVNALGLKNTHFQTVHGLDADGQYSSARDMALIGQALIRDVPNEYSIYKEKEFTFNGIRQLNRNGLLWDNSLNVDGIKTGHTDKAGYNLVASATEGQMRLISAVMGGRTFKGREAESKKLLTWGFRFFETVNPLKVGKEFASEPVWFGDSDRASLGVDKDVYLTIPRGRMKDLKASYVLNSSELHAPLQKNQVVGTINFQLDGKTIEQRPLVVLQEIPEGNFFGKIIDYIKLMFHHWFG

[2] = molecular target: T2, His-tagged DacC (pET28a plasmid, ER2566) (Escherichia coli) (UniProt P08506)
T2 sequence: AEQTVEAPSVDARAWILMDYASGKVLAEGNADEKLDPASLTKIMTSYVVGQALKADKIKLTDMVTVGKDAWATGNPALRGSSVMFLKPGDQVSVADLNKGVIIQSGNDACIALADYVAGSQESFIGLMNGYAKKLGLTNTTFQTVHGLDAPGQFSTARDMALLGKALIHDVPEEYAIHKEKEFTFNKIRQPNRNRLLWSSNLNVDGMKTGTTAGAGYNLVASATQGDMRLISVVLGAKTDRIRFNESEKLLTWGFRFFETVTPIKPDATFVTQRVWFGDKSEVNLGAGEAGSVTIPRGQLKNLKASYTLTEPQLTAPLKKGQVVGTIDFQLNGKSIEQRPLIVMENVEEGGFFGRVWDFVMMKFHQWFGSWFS

[3] = molecular target: T1, His-tagged DacA (pET28a plasmid, ER2566) (Escherichia coli); remark: listed apart in the source
[4] = molecular target: T2, His-tagged DacC (pET28a plasmid, ER2566) (Escherichia coli); remark: listed apart in the source

binding [1]: binds | binding [2]: binds | binding [3]: binds | binding [4]: binds
Substance: non-tagged PBP1b (pET24a plasmid, ER2566) (from UniProt P02919) (enzyme)

Where two headings read alike, the source gives them in different places. These are yes or no findings as the source states them, for the method shown. In cells and extracts the contact can be indirect. Binding calls can cover weak binding; strength is not graded here. Tags and fused reporters may be left off the sequences shown.
